{"source": "the supplement of paper PMC10338343", "note": "± gives the standard deviation. The entries are a selection whose mix differs from that of the whole data set. Many of these values have a large error.", "data": [{"system": "MILI (PIWIL2) piRISC loaded with L1MC piRNA (26 nt)", "assay": "pre-steady-state target cleavage rate (min^-1); MIWI and MILI are mouse PIWI proteins and EfPiwi is from a freshwater sponge; tags in brackets are library labels; higher = faster piRNA-guided slicing of the target", "details": "guide: L1MC piRNA 5'p-UAACUAAAUACUAUGCAAGCUGUAGG; auxiliary factor: 500 nM mouse GTSF1", "procedure,_shortened": "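A transcribed, DNA-blocked target RNA library (0.1 nM) and 1 nM active affinity-purified piRISC bearing one synthetic guide were incubated in HEPES–potassium acetate buffer at 33 °C for 0–8 or 0–960 min, either with or without 500 nM GTSF1 partner protein. Uncleaved targets were sequenced, normalised to depth and to weakly complementary targets, and pooled over three trials, with k3 capped at 0.0001 min^-1. The pre-steady-state cleavage rate was derived with a burst-and-steady-state fit.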", "values": [{"sequence": "UCCUGCUACAGCUUGCAUGGUAUUUAGUUA", "pre-steady-state target cleavage rate": "0.334 ± 0.018"}, {"sequence": "UCCUGGAUGUCGAACGUAAGUAUUUACUAA", "pre-steady-state target cleavage rate": "0.000166 ± 0.04"}, {"sequence": "UCCUGGAUGUCGAAGGAUAGUAUUUAGAUA", "pre-steady-state target cleavage rate": "0.000112 ± 0.035"}, {"sequence": "UCCUGCUACAGGAUGCAUAGUAUUUAGUAA", "pre-steady-state target cleavage rate": "0.301 ± 0.044"}, {"sequence": "UCCUGCAACAGCUUGCAUAGUAAUUAGUUA", "pre-steady-state target cleavage rate": "0.34 ± 0.025"}, {"sequence": "UCCUCCUACAGCCUGCAUAGUAUUUAGUUA", "pre-steady-state target cleavage rate": "0.287 ± 0.018"}, {"sequence": "UCCUGGUACAGCUUGCAUAGUAAUUAGUUA", "pre-steady-state target cleavage rate": "0.317 ± 0.034"}, {"sequence": "UCCUGGAUGUCCUUGGCAUAGUAUUUAGUUA", "pre-steady-state target cleavage rate": "0.566 ± 0.19"}, {"sequence": "UCCUGCUACAGCUUGCAUAGUAUUUCAGUUA", "pre-steady-state target cleavage rate": "0.335 ± 0.075"}, {"sequence": "UCCUGCUACAGCUUGCAUAGUAUAUUAGUUA", "pre-steady-state target cleavage rate": "0.389 ± 0.042"}, {"sequence": "UCCUGGUACAGCUUGGAUAGUAUAUAGUUA", "pre-steady-state target cleavage rate": "0.316 ± 0.065"}, {"sequence": "UCCUGGAUGUCGAACGUUAGUAUUUAUUA", "pre-steady-state target cleavage rate": "0.000101 ± 0.059"}]}]}
